These results are taken from doi:10.1101/2024.05.09.593434.

Amino acid sequences for entries named in this document (tags omitted).
UniProt P29386: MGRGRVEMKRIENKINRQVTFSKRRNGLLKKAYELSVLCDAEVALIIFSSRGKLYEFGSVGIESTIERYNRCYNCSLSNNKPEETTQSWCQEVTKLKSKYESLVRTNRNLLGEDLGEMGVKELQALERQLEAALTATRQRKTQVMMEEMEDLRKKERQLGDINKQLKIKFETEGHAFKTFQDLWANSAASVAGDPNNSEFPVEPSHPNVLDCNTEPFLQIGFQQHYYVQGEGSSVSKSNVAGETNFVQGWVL
UniProt O64645: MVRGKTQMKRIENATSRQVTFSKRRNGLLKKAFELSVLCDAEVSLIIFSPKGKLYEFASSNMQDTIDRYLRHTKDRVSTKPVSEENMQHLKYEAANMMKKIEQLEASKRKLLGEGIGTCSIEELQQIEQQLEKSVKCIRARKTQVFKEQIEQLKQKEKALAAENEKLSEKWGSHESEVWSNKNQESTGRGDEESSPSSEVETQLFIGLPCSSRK

These are yes or no findings as the source states them, for the method shown. Some entries that bind do so weakly or less than the wild type.

Assay [1] has as its target AGL6, MADS-box transcription factor (A. thaliana) (UniProt P29386). Kind of assay: two-hybrid.
The target of assay [2] is SUPPRESSOR OF OVEREXPRESSION OF CO 1 (SOC1), MADS-box transcription factor (A. thaliana) (UniProt O64645). Put plainly: two-hybrid.

Consider “SHORT … PHASE (SVP), MADS-box transcription factor (from UniProt Q9FVC1 1-240)”, for which the binding result in assay [1] and in assay [2] was “binds” in each case.
